The text below walks through data of publication PMC10241871.

Common to all, as to assay: two-hybrid; rice HATs in pGBKT7, ACL cDNAs in pGADT7; growth on SD-LTHA (-Leu/-Trp/-His/-Ade) solid medium
The target of test [1] is T1, HAG702 (homologous to GCN5), yeast two-hybrid fusion (rice (Oryza sativa)) (UniProt Q338B9).
T1 sequence: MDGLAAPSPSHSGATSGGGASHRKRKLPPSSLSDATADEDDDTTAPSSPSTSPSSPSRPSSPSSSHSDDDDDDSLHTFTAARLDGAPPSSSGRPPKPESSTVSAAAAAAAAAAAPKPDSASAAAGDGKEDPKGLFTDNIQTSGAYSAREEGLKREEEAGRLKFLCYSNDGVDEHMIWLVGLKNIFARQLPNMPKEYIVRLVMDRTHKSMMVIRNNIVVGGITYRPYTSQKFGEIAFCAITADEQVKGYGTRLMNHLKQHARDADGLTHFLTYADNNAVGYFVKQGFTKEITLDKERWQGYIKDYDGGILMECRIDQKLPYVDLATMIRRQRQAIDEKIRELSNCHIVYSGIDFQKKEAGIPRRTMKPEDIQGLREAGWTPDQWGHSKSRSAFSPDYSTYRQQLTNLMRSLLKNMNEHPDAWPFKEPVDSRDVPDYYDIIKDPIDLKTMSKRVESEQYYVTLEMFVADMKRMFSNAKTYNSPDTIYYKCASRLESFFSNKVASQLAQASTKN

Test [2] addresses T2, ADA2, yeast two-hybrid fusion (rice (Oryza sativa)) (UniProt Q75LL6).
T2 sequence: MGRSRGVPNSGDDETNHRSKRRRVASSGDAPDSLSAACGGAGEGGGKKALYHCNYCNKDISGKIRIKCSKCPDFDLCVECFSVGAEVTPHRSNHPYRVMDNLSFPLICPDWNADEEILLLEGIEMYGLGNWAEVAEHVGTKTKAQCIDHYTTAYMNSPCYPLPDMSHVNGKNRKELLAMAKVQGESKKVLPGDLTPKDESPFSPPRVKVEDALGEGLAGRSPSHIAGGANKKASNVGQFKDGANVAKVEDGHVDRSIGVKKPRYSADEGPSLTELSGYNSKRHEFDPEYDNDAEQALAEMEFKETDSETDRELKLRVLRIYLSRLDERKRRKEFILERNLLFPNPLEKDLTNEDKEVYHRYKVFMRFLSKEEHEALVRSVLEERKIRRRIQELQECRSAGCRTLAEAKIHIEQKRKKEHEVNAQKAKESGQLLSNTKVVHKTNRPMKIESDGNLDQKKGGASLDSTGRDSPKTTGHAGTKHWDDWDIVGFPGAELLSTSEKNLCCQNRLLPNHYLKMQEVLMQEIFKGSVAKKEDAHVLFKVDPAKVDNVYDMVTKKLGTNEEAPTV

The target in test [3] is T3, HAG703 (homologous to ELP3), yeast two-hybrid fusion (rice (Oryza sativa)) (UniProt Q7X7L3).
T3 sequence: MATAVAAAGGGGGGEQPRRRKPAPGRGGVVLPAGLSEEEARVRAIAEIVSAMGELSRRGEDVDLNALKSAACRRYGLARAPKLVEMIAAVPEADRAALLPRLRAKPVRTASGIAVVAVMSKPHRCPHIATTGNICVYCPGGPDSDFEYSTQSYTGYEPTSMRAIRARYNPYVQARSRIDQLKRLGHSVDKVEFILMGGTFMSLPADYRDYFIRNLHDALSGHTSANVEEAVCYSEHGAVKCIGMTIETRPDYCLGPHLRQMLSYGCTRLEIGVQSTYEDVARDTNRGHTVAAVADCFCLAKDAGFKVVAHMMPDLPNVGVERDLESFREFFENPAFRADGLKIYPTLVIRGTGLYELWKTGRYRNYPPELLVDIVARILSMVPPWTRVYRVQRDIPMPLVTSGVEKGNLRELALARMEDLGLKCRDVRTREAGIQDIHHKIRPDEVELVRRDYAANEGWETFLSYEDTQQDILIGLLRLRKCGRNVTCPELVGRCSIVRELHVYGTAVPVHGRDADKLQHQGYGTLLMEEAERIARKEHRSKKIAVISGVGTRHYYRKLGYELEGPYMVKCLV

No constants are given. Whether binding was seen depends on the method and setting. For part of these data: Binding can be weak; no strength is given. Tags and fused reporters may be left off the sequences shown.

Turning to “ATP-citrate lyase subunit A2 (ACLA2), yeast two-hybrid fusion (rice (Oryza sativa))”, the results for the binding result in test [1], in test [2] and in test [3] were “no binding”, “binds” and “binds”, respectively.
